Paper PMC12029333

Target: T1, GST-PrkC (Serine/threonine-protein kinase PrkC) (Bacillus subtilis str. 168) (UniProt O34507)
T1 sequence: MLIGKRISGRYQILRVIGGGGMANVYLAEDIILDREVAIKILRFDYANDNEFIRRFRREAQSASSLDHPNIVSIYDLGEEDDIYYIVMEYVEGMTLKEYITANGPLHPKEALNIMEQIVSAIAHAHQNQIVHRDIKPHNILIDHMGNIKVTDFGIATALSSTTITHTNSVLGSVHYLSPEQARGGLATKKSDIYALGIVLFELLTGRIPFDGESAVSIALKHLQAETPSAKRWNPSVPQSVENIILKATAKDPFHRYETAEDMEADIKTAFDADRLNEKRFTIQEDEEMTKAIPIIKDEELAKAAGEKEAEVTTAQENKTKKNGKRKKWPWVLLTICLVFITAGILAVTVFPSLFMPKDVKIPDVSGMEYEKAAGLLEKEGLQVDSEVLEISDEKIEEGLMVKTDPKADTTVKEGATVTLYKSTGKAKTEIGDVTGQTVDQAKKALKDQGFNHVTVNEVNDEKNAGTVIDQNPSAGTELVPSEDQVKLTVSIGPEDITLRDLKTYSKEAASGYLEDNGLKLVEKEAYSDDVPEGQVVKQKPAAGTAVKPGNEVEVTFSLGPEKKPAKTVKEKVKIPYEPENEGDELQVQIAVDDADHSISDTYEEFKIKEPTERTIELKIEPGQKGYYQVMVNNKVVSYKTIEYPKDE
Test: affinity purification with mass spectrometry; GST-PrkC on glutathione resin incubated with B. subtilis spore lysate at 4 °C; resin washed; bound proteins eluted with 20 mM reduced glutathione; eluate digested with trypsin and analysed by LC-MS/MS; hits filtered at 1% FDR, >=2 unique peptides; only the target purified

- binding: binds
B1: Amidophosphoribosyltransferase (protein, UniProt P00497 12-476)
chain: CGVFGIWGHEEAPQITYYGLHSLQHRGQEGAGIVATDGEKLTAHKGQGLITEVFQNGELSKVKGKGAIGHVRYATAGGGGYENVQPLLFRSQNNGSLALAHNGNLVNATQLKQQLENQGSIFQTSSDTEVLAHLIKRSGHFTLKDQIKNSLSMLKGAYAFLIMTETEMIVALDPNGLRPLSIGMMGDAYVVASETCAFDVVGATYLREVEPGEMLIINDEGMKSERFSMNINRSICSMEYIYFSRPDSNIDGINVHSARKNLGKMLAQESAVEADVVTGVPDSSISAAIGYAEATGIPYELGLIKNRYVGRTFIQPSQALREQGVRMKLSAVRGVVEGKRVVMVDDSIVRGTTSRRIVTMLREAGATEVHVKISSPPIAHPCFYGIDTSTHEELIASSHSVEEIRQEIGADTLSFLSVEGLLKGIGRKYDDSNCGQCLACFTGKYPTEIYQDTVLPHVKEAVLTK

- binding: binds
B2: Pectin lyase (protein, UniProt O34819 25-345)
chain: AVDFPNTSTNGLLGFAGNAKNEKGISKTGTTGGKNGQIVYIQSVNDLKTHLGGSTPKILVLQNDLSASAKTTVTIGSNKTLVGSYAKKTLKNIYLTTSSAFGNVIFQNLTFEHSPQINGNNDIQLYLDSGMNYWIDHVTFSGHSYNASGSDLDKLVYIGKSADYITISNSKFANHKYGLILGYPDDSQHQYDGYPHMTIANNYFENLYVRGPGLMRYGYFHVKNNYSNNFNQAITIATKAKIYSEYNYFGKGSEKGGILDDKGTGYFKDIGSYPSLNKQTSPLTSWNPGSNYSYRVQTPEYTKEFVTKYAGSQSTTLVFGY

- binding: binds
B3: 2-methylisocitrate lyase (protein, UniProt P54528 1-301)
chain: MSWIVNKQSSQEELAGRFRKLMSAPDILQIPGAHDGMAALLAKEAGFSAIYLSGAAYTASRGLPDLGIITSAEIAERAKDLVRAADLPLLVDIDTGFGGVLNAARTAREMLEARVAAVQMEDQQLPKKCGHLNGKQLVPIKEMAQKIKAIKQAAPSLIVVARTDARAQEGLDAAIKRSEAYIEAGADAIFPEALQAENEFRQFAERIPVPLLANMTEFGKTPYYRADEFEDMGFHMVIYPVTSLRAAAKACERMFGLMKEHGSQKEGLHDMQTRKELYDTISYYDYEALDKTIAKTVLPDE

- binding: binds
B4: Proline-tRNA ligase (protein, UniProt O31755 1-564)
chain: MRQSLTLIPTLREVPADAEAKSHQLLLRAGFIRQNTSGVYSYMPLAYKVIQNIQQIVREEMEKIDAVEMLMPALQQAETWQESGRWYTYGPELMRLKDRHGREFALGATHEEVITSLVRDEVKSYKRLPLTLYQIQSKFRDEKRPRFGLLRGREFIMKDAYSFHASAESLDETYQKMYEAYSNIFARCGINVRPVIADSGAMGGKDTHEFMALSAIGEDTIAYSDESQYAANIEMAEVLHQEVPSDEEPKALEKVHTPNVKTIEELTAFLQVSAEACIKSVLFKADDRFVLVLVRGDHEVNDIKVKNLLHAEVVELATHEEVIQQLGTEPGFVGPVGIHQDVEVYADQAVKAMVNAVAGANEGDHHYKNVNVNRDAQIKEFADLRFIKEGDPSPDGKGTIRFAEGIEVGQVFKLGTRYSEAMNATYLDENGRAQPMLMGCYGIGVSRTLSAIAEQHHDEKGLIWPKSVAPYDLHILALNMKNDGQRELAEKLYADLKAEGYEVLYDDRAERAGVKFADSDLIGLPIRITVGKRADEGIVEVKIRQTGESTEISVDELSAFISKQ

- binding: binds
B5: Oligopeptide transport ATP-binding protein AppD (protein, UniProt P42064 1-328)
chain: MSTLLEVNNLKTYFFRKKEPIPAVDGVDFHISKGETVALVGESGSGKSITSLSIMGLVQSSGGKIMDGSIKLEDKDLTSFTENDYCKIRGNEVSMIFQEPMTSLNPVLTIGEQITEVLIYHKNMKKKEARQRAVELLQMVGFSRAEQIMKEYPHRLSGGMRQRVMIAIALSCNPKLLIADEPTTALDVTIQAQVLELMKDLCQKFNTSILLITHDLGVVSEAADRVIVMYCGQVVENATVDDLFLEPLHPYTEGLLTSIPVIDGEIDKLNAIKGSVPTPDNLPPGCRFAPRCPKAMDKCWTNQPSLLTHKSGRTVRCFLYEEEGAEQS

- binding: binds
B6: Uncharacterized phosphatase PhoE (protein, UniProt O07617 1-193)
chain: MTAVCLVRHGETDWNLQQKCQGKTDIPLNATGERQARETGEYVKDFSWDIIVTSPLKRAKRTAEIINEYLHLPIVEMDDFKERDYGDAEGMPLEERTKRYPDNIYPNMETLEELTDRLMGGLAKVNQAYPNKKVLIVAHGAAIHALLTEISGGDPELQSTRLVNACLSNIEFAEEKWRIKDYNINSHLSGFIK

- binding: binds
B7: DNA repair protein RecN (protein, UniProt P17894 1-576)
chain: MLAELSIKNFAIIEELTVSFERGLTVLTGETGAGKSIIIDAISLLVGGRGSSEFVRYGEAKAELEGLFLLESGHPVLGVCAEQGIDVSDEMIVMRRDISTSGKSVCRVNGKLVTIASLREIGRLLLDIHGQHDNQLLMEDENHLQLLDKFAGAEVESALKTYQEGYQRYVKLLKKLKQLSESEQEMAHRLDLIQFQLEEIESAKLELNEDEQLQEERQQISNFEKIYESLQNAYNALRSEQGGLDWVGMASAQLEDISDINEPLKKMSESVSNSYYLLEDATFQMRNMLDELEFDPERLNYIETRLNEIKQLKRKYGATVEDILEYASKIEEEIDQIENRDSHLQSLKKELDSVGKDVAVEAANVSQIRKTWAKKLADEIHRELKSLYMEKSTFDTEFKVRTASRNEEAPLVNGQPVQLTEQGIDLVKFLISTNTGEPLKSLSKVASGGELSRVMLAIKSIFSSQQDVTSIIFDEVDTGVSGRVAQAIAEKIHKVSIGSQVLCITHLPQVAAMADTHLYIAKELKDGRTTTRVKPLSKQEKVAEIGRMIAGVEVTDLTKRHAKELLKQADQVKTTG

- binding: binds
B8: Carbamoyl phosphate synthase pyrimidine-specific large chain (protein, UniProt P25994 1-1071)
chain: MPKRVDINKILVIGSGPIIIGQAAEFDYAGTQACLALKEEGYEVILVNSNPATIMTDTEMADRVYIEPLTPEFLTRIIRKERPDAILPTLGGQTGLNLAVELSERGVLAECGVEVLGTKLSAIQQAEDRDLFRTLMNELNEPVPESEIIHSLEEAEKFVSQIGFPVIVRPAYTLGGTGGGICSNETELKEIVENGLKLSPVHQCLLEKSIAGYKEIEYEVMRDSQDHAIVVCNMENIDPVGIHTGDSIVVAPSQTLSDREYQLLRNVSLKLIRALGIEGGCNVQLALDPDSFQYYIIEVNPRVSRSSALASKATGYPIAKLAAKIAVGLSLDEMMNPVTGKTYAAFEPALDYVVSKIPRWPFDKFESANRKLGTQMKATGEVMAIGRTLEESLLKAVRSLEADVYHLELKDAADISDELLEKRIKKAGDERLFYLAEAYRRGYTVEDLHEFSAIDVFFLHKLFGIVQFEKELKANAGDTDVLRRAKELGFSDQYISREWKMKESELYSLRKQAGIAPVFKMVDTCAAEFESETPYFYSTYEEENESVVTDKKSVMVLGSGPIRIGQGVEFDYATVHSVWAIKQAGYEAIIVNNNPETVSTDFSISDKLYFEPLTIEDVMHIIDLEQPMGVVVQFGGQTAINLADELSARGVKILGTSLEDLDRAEDRDKFEQALGELGVPQPLGKTATSVNQAVSIASDIGYPVLVRPSYVLGGRAMEIVYHEEELLHYMKNAVKINPQHPVLIDRYLTGKEIEVDAVSDGETVVIPGIMEHIERAGVHSGDSIAVYPPQSLTEDIKKKIEQYTIALAKGLNIVGLLNIQFVLSQGEVYVLEVNPRSSRTVPFLSKITGIPMANLATKIILGQKLAAFGYTEGLQPEQQGVFVKAPVFSFAKLRRVDITLGPEMKSTGEVMGKDSTLEKALYKALIASGIQIPNYGSVLLTVADKDKEEGLAIAKRFHAIGYNILATEGTAGYLKEASIPAKVVGKIGQDGPNLLDVIRNGEAQFVINTLTKGKQPARDGFRIRRESVENGVACLTSLDTAEAILRVLESMTFRADQMPAVNTNQEAAVTI

- binding: binds
B9: Cytochrome c biogenesis protein ResB (protein, UniProt P35161 1-542)
chain: MKQVKCECGHINPVGTVLCESCGRALQETQPPLADMRYDGSARRSQTYNKTIIDKIWNFFSSVKVGIWLIVITLAASAFGTIFPQEAYLPPGAQADTYYKEQYGTFGQLYYLLGFHHLYGSWWYLLLIASIGISLVICSLDRVIPLYRALKNQGVRRSPAFLRRQRLFSETVTVLNGESKEKIVTLLKKKHYRIREKEGSILAEKGRFSRWGPYVNHIGLIIFLIGAMLRFVPGMYVDETLWVREGETAAIPGTDGKYYLKNNQFSVETYNSKTEKKVFADAIDRVGDGRVAKNFQTDAVLYKREGKIVYGEKPKLEKVTEEDIRVNQPLRFDSFSVYQVDYKENQLDQMVFQLIDKKTKKSFGSLKINLLDPDSVYDLGNGYKVEIASYLPDFYFNQDGEPSTKTKIPNNPAFVFNIITPDKPKGEKSFVAIQETIEGSGNNKYKLKFDHVETKNITGLTVRKDLTLWVLAVGGAIFMIGVIQGMYWQHRRIWLHSQDGAVMVAGHTNKNWFGLKKDLAFILADSGLTEPVDQKELIKTQK

- binding: binds
B10: Peptidoglycan-N-acetylmuramic acid deacetylase PdaC (protein, UniProt O34798 1-467)
chain: MLAKRIKWFHVLIAVVCVVGLIGFFHNHSLKKETVMNKVRTDSQYGNVEIATLVNDGKTFNYAVNYPVFKNEKMDSALKRFAEKEVRQFQKETKDVDQEHTTKRNELNVDYKIVHYAKQTVAIVFNEYKYIGGAHGQTVKKTFNYDFSKQAFLSIDDIFKEDADYLHKLSLIAYHELKKNKDIAADDALLKEGTAPKKENFSRFAIKEDYIELYFDTYQVAAGYLGEQSIAIKKSLLKDILKEQYIDKAKNKNKIKEQKPKHEVISLPKEETVDPNQKVIALTFDDGPNPATTNQILDSLKKYKGHATFFVLGSRVQYYPETLIRMLKEGNEVGNHSWSHPLLTRLSVKEALKQINDTQDIIEKISGYRPTLVRPPYGGINDELRSQMKMDVALWDVDPEDWKDRNKKTIVDRVMNQAGDGRTILIHDIYRTSADAADEIIKKLTDQGYQLVTVSQLEEVKKQREAK

These are yes or no findings as the source states them, for the method shown. Binding seen in cells or lysates may run through a third protein. These calls come from enrichment with a bait or labelling near it, and not all partners need be listed. Sequences can lack the tags named with a protein. Each block holds one binder with its values, some of them ahead of it.
